The nature of this series: Color coordinates (L*a*b* values) of ink jet printed samples of inks comprising the dyes. The following applies: Canon BJC 8500, illuminant D65; for L* (L*a*b* values, Recording Sheet 1) / a* (L*a*b* values, Recording Sheet 1) / b* (L*a*b* values, Recording Sheet 1): ink printed on ILFORD Photo Paper IJP1GP7 (Recording Sheet 1); for L* (L*a*b* values, Recording Sheet 2) / a* (L*a*b* values, Recording Sheet 2) / b* (L*a*b* values, Recording Sheet 2): ink printed on Xerox 4024 DP (Recording Sheet 2).

On to `O=C(Nc1cc(S(=O)(=O)[O-])cc2cc(S(=O)(=O)[O-])c(N=Nc3ccc4c(S(=O)(=O)[O-])cccc4c3S(=O)(=O)[O-])c(O)c12)c1cccs1.[Na+].[Na+].[Na+].[Na+]` [Compound No. 10], for which the “L* (L*a*b* values, Recording Sheet 1)” value turned out to be 46.6; the “a* (L*a*b* values, Recording Sheet 1)” value is recorded as 81.5; the “b* (L*a*b* values, Recording Sheet 1)” value is listed as −11.9; the “L* (L*a*b* values, Recording Sheet 2)” value came to 52.9. Also, the “a* (L*a*b* values, Recording Sheet 2)” value is recorded as 65.0 and the “b* (L*a*b* values, Recording Sheet 2)” value is given as −8.8.
As to `Cc1ccc(N=Nc2c(S(=O)(=O)[O-])cc3cc(S(=O)(=O)[O-])cc(NC(=O)c4ccccc4)c3c2O)c(S(=O)(=O)[O-])c1.[Na+].[Na+].[Na+]` [I], the “L* (L*a*b* values, Recording Sheet 1)” value was 47.0; the “a* (L*a*b* values, Recording Sheet 1)” value stood at 85.1; the “b* (L*a*b* values, Recording Sheet 1)” value is −10.4; the “L* (L*a*b* values, Recording Sheet 2)” value stood at 53.3. Further, the “a* (L*a*b* values, Recording Sheet 2)” value is 68.7 and the “b* (L*a*b* values, Recording Sheet 2)” value is reported as −7.4.
Turning to `Cc1ccc(N=Nc2c(S(=O)(=O)[O-])cc3cc(S(=O)(=O)[O-])cc(NC(=O)c4cccs4)c3c2O)c(S(=O)(=O)[O-])c1.[Na+].[Na+].[Na+]` [compound 50], the “L* (L*a*b* values, Recording Sheet 1)” value was 47.1; the “a* (L*a*b* values, Recording Sheet 1)” value is on record as 84.0; the “b* (L*a*b* values, Recording Sheet 1)” value is −14.7; the “L* (L*a*b* values, Recording Sheet 2)” value was determined as 53.3. Besides, the “a* (L*a*b* values, Recording Sheet 2)” value amounted to 67.5 and the “b* (L*a*b* values, Recording Sheet 2)” value is recorded as −10.8.
Consider `O=C(Nc1cc(S(=O)(=O)[O-])cc2cc(S(=O)(=O)[O-])c(N=Nc3ccc4c(S(=O)(=O)[O-])cccc4c3S(=O)(=O)[O-])c(O)c12)c1ccccc1.[Na+].[Na+].[Na+].[Na+]` [III], for which the “L* (L*a*b* values, Recording Sheet 1)” value is listed as 46.9; the “a* (L*a*b* values, Recording Sheet 1)” value stood at 84.0; the “b* (L*a*b* values, Recording Sheet 1)” value is reported as −8.2; the “L* (L*a*b* values, Recording Sheet 2)” value is listed as 53.2. Moreover, the “a* (L*a*b* values, Recording Sheet 2)” value was found to be 67.3 and the “b* (L*a*b* values, Recording Sheet 2)” value is given as −5.8.
`CCOc1nc(Nc2ccc(S(=O)(=O)[O-])c(N=Nc3c(S(=O)(=O)[O-])cc4cc(S(=O)(=O)[O-])cc(NC(=O)c5ccccc5)c4c3O)c2)nc(SCCCS(=O)(=O)[O-])n1.[Na+].[Na+].[Na+].[Na+]` [II]: the “L* (L*a*b* values, Recording Sheet 1)” value turned out to be 45.6; the “a* (L*a*b* values, Recording Sheet 1)” value was found to be 83.1; the “b* (L*a*b* values, Recording Sheet 1)” value was −3.5; the “L* (L*a*b* values, Recording Sheet 2)” value was 52.9. Further, the “a* (L*a*b* values, Recording Sheet 2)” value worked out at 66.1 and the “b* (L*a*b* values, Recording Sheet 2)” value is −2.7.

Source of the values: patent publication US20030221588A1, “Monoazo dyes and their preparation and use” (ILFORD IMAGING SWITZERLAND GmbH., priority 2002, published 2003).
